Literature values in US8440210B2, “Stabilized pharmaceutical product” (Takeda GmbH, priority 2003, dated 2013).

Conditions: drug substance

Structure (SMILES): COc1ccc(CC(C)NCC(O)c2ccc(O)c(NC=O)c2)cc1 (stereo not shown) [Formoterol]
- stable at ambient conditions for up to: up to two
